According to publication PMC13140326:

Target: ZmSnRK2.10 (endogenous, immunoprecipitated from kernels) (maize (endogenous in B73 kernels))
Test: affinity purification with mass spectrometry; IP-MS: protein extract of 15-DAP B73 kernels incubated with anti-ZmSnRK2.10 antibody and protein A magnetic beads, 4°C, 4 h; IgG as negative control; washed with PBS with 1% Nonidet P-40

B1: GBSSI (Wx, granule-bound starch synthase), endogenous (enzyme, UniProt P04713 73-605)
chain: ASAGMNVVFVGAEMAPWSKTGGLGDVLGGLPPAMAANGHRVMVVSPRYDQYKDAWDTSVVSEIKMGDGYETVRFFHCYKRGVDRVFVDHPLFLERVWGKTEEKIYGPVAGTDYRDNQLRFSLLCQAALEAPRILSLNNNPYFSGPYGEDVVFVCNDWHTGPLSCYLKSNYQSHGIYRDAKTAFCIHNISYQGRFAFSDYPELNLPERFKSSFDFIDGYEKPVEGRKINWMKAGILEADRVLTVSPYYAEELISGIARGCELDNIMRLTGITGIVNGMDVSEWDPSRDKYIAVKYDVSTAVEAKALNKEALQAEVGLPVDRNIPLVAFIGRLEEQKGPDVMAAAIPQLMEMVEDVQIVLLGTGKKKFERMLMSAEEKFPGKVRAVVKFNAALAHHIMAGADVLAVTSRFEPCGLIQLQGMRYGTPCACASTGGLVDTIIEGKTGFHMGRLSVDCNVVEPADVKKVATTLQRAIKVVGTPAYEEMVRNCMIQDLSWKGPAKNWENVLLSLGVAGGEPGVEGEEIAPLAKENVAAP
  binding: binds

No constants are given. Whether binding was seen depends on the method and setting. Binding seen in cells or lysates may run through a third protein. A yes stands for co-enrichment or nearness to the bait. Other partners may have been found.
